The other results are listed elsewhere or left out.

Protein sequences, listed by entry. Tags and fused reporters are not part of them. Lines headed by an entry give the natural chain unless they say otherwise; changes in a name come on top.
UniProt Q9NVG8: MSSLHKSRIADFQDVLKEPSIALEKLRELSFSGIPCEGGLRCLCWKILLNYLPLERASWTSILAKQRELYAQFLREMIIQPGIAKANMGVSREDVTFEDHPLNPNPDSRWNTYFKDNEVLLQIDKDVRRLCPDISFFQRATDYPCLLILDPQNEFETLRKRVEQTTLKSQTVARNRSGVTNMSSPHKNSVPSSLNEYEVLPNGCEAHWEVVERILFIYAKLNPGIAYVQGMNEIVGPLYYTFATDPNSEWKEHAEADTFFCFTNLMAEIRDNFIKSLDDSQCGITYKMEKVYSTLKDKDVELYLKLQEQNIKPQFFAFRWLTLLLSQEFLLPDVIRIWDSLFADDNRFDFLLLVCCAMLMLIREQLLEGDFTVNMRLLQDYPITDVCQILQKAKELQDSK
UniProt Q96MN5: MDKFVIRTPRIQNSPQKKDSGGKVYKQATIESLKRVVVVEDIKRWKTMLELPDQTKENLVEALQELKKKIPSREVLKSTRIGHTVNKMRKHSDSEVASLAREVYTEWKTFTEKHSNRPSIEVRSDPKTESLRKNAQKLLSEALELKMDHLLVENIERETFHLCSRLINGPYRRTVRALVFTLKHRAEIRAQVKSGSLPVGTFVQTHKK
UniProt Q8IYJ3: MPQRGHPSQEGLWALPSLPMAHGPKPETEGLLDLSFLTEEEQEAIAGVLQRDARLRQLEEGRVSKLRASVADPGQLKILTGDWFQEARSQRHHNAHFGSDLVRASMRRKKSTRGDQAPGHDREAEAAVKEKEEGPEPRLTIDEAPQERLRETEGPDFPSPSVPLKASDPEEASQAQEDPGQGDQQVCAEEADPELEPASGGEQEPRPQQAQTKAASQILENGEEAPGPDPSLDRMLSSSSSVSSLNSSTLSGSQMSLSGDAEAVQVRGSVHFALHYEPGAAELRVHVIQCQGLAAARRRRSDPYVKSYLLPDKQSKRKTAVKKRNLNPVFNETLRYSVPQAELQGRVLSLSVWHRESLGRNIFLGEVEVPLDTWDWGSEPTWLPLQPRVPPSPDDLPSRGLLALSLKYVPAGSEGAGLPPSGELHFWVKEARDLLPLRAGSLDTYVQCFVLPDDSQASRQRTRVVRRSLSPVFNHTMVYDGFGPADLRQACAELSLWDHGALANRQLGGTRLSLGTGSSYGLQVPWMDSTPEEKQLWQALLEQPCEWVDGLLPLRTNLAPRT
UniProt Q92844: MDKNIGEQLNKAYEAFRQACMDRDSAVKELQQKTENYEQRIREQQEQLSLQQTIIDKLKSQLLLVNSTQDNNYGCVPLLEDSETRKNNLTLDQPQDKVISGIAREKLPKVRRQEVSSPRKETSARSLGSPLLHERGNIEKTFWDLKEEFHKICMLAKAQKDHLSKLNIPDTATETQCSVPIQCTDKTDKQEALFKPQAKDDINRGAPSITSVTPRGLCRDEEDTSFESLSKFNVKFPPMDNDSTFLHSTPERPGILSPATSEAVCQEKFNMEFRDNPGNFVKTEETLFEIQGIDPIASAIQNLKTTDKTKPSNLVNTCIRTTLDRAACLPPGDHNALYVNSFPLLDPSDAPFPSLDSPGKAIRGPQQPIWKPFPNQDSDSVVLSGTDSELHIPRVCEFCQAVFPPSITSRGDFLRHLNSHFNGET
UniProt Q12788: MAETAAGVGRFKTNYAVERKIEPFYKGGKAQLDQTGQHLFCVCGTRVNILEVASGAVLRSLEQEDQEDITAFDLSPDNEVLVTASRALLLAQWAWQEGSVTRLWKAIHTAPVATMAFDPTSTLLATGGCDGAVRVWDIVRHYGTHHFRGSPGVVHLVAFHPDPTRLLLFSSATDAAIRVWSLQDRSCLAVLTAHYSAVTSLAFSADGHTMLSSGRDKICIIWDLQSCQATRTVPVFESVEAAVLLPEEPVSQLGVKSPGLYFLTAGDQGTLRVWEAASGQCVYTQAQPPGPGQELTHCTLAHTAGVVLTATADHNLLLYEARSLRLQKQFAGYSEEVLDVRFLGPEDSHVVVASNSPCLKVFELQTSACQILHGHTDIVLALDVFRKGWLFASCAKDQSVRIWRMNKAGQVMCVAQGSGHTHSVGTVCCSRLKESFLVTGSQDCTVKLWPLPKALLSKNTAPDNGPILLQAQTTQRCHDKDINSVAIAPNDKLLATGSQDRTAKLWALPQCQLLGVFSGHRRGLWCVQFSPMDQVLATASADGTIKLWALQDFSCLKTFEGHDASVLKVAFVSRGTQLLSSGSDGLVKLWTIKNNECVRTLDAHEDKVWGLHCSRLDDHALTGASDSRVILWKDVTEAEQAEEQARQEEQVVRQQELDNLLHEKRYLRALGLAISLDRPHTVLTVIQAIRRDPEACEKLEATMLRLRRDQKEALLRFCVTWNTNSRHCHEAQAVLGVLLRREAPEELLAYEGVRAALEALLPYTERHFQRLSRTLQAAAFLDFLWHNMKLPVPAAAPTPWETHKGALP
UniProt Q969Z0: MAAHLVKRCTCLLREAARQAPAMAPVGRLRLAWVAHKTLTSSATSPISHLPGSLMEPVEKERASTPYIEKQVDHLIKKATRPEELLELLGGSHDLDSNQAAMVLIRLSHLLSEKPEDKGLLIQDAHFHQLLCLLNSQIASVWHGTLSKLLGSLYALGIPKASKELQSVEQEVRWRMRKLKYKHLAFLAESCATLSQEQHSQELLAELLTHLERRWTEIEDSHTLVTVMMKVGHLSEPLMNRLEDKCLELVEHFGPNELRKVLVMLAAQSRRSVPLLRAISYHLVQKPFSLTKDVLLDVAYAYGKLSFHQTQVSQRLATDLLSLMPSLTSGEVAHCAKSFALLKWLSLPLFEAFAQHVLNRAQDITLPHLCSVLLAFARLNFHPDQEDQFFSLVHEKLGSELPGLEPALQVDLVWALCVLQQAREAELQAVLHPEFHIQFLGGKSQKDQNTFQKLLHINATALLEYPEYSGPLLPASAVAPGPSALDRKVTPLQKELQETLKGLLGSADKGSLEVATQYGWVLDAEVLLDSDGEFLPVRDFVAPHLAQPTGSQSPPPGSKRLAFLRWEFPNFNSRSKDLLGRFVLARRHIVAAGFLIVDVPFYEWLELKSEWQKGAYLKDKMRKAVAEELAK
UniProt Q9BTW9: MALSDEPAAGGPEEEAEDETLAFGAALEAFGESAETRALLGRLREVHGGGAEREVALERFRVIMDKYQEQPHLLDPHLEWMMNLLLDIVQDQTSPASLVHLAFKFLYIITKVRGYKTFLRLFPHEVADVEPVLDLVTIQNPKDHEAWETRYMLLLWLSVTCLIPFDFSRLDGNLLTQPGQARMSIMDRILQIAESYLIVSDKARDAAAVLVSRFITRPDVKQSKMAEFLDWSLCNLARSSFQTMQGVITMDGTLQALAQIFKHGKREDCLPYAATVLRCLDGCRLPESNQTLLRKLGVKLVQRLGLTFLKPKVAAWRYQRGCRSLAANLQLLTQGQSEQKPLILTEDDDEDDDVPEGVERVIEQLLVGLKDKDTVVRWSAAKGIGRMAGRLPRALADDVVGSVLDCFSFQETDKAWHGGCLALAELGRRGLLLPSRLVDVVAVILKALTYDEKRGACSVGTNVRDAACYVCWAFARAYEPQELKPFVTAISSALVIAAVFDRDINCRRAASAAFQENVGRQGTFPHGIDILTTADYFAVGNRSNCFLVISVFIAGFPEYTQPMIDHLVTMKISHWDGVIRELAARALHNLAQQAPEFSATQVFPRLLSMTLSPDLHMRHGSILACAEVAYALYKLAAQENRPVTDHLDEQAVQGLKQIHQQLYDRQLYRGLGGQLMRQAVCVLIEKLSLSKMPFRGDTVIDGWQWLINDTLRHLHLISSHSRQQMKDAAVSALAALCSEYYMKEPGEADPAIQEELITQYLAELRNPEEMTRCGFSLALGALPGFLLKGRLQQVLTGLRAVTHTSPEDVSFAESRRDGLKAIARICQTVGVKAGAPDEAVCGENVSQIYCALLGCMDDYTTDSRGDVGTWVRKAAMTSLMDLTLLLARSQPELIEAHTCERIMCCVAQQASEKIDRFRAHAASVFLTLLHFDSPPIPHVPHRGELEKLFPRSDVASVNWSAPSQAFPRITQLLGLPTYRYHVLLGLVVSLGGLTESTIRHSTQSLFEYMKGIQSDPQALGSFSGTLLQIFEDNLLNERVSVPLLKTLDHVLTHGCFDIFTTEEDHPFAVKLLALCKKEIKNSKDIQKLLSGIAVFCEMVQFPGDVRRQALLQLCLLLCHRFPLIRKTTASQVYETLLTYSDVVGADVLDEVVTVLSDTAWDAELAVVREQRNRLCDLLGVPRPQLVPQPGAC
UniProt Q0IIM8: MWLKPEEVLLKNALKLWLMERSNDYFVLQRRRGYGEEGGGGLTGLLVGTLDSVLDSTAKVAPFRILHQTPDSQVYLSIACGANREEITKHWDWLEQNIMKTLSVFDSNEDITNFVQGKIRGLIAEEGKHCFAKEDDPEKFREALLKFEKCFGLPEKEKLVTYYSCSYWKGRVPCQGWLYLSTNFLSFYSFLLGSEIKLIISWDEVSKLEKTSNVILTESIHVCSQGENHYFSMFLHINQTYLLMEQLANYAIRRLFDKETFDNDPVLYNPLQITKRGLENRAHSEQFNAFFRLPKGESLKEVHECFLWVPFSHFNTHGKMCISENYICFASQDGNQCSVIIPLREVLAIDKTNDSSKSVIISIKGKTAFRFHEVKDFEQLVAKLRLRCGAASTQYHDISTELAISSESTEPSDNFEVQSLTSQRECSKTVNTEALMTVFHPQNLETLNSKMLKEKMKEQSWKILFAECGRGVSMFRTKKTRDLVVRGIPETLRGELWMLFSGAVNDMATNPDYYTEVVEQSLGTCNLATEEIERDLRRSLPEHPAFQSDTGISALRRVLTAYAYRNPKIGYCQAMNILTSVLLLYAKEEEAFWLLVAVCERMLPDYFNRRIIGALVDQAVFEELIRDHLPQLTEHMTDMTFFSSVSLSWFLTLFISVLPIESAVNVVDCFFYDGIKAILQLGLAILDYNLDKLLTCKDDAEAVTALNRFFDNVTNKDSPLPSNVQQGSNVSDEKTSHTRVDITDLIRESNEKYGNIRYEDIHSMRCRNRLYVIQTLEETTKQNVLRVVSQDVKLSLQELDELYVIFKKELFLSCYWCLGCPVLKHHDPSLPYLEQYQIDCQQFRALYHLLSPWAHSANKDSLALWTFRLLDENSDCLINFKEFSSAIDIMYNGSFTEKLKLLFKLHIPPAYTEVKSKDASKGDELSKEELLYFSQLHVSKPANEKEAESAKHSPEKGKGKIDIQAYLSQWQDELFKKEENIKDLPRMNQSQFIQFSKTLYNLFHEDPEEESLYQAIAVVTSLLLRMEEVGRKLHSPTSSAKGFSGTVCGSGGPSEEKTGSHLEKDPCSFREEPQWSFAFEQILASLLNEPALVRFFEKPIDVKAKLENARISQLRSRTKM
UniProt Q6P1N9: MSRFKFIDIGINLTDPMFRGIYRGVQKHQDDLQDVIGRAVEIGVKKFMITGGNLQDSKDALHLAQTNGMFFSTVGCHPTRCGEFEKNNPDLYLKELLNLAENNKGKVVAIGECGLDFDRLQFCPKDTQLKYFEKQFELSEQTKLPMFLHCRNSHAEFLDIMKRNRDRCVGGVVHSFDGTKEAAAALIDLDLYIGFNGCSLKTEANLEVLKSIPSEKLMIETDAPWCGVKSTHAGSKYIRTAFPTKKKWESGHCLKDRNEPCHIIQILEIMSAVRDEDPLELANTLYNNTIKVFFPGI
UniProt Q9BZK7: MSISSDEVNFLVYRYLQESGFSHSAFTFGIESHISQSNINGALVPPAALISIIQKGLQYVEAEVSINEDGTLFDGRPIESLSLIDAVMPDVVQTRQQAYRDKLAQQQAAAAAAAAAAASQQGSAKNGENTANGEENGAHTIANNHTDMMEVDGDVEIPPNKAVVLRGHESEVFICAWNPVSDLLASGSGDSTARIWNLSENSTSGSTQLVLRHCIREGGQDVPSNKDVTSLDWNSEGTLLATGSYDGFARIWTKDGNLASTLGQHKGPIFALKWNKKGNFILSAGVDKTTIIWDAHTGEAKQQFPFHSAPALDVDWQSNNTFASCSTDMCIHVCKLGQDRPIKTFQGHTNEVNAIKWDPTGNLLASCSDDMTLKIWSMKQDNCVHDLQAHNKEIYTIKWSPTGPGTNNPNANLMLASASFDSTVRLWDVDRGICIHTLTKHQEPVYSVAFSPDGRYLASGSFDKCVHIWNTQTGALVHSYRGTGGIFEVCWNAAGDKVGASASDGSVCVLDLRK

Consider 14 targets from the supplement of paper PMC12067093, “Discovery and optimisation of a covalent ligand for TRIM25 and its application to targeted protein ubiquitination” (Chemical Science, 2025).

Compound in this test: CC1Cc2ccccc2N1C(=O)C1CCCN(C1)C(=O)CCl (mixture of isomers) [TRIM25 ligand 11 (diastereomer mixture)]
The test is described as follows: probe-labelled cysteine peptide fold change vs DMSO (competition) (log2 fold change); higher = less target engagement (more negative = stronger competition). The following applies: THP-1, incubation time: 4 h.
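Further: competitive chemoproteomic profiling in live THP-1 cells with an iodoacetamide desthiobiotin (IA-DTB) probe, comparing probe-labelled peptide intensities in compound-treated cells against DMSO-treated controls.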

For the target “TBC1D13_Q9NVG8_131_RLCPDISFFQR (UniProt Q9NVG8)”, the “probe-labelled cysteine peptide fold change” value is, setting by setting: (10 µM) -0.0127; (50 µM) 0.0373.

Take “TCEANC2_Q96MN5_163_ETFHLCSR (UniProt Q96MN5)”: the “probe-labelled cysteine peptide fold change” value (10 µM) came to 0.276 and the “probe-labelled cysteine peptide fold change” value (50 µM) stood at 0.283.

Take “SYTL1_Q8IYJ3_290_VHVIQCQGLAAAR (UniProt Q8IYJ3)”: the “probe-labelled cysteine peptide fold change” value (10 µM) is -0.0395 and the “probe-labelled cysteine peptide fold change” value (50 µM) came to 0.0114.

For the target “TANK_Q92844_177_LNIPDTATETQCSVPIQCTDK (UniProt Q92844)”, the “probe-labelled cysteine peptide fold change” value (10 µM) was -0.141 and the “probe-labelled cysteine peptide fold change” value (50 µM) is -0.16.

Consider “TBL3_Q12788_413_AGQVMCVAQGSGHTHSVGTVCCSR (UniProt Q12788)”, for which the “probe-labelled cysteine peptide fold change” value stood at 0.0778 (10 µM) and 0.0389 (50 µM).

With “TBRG4_Q969Z0_370_AQDITLPHLCSVLLAFAR (UniProt Q969Z0)”, the “probe-labelled cysteine peptide fold change” value is -0.121 (10 µM) and 0.0306 (50 µM).

Take “TBCD_Q9BTW9_269_EDCLPYAATVLR (UniProt Q9BTW9)”: the “probe-labelled cysteine peptide fold change” value by setting is: (10 µM) -0.198; (50 µM) -0.0833.

In the case of “SYTL4_Q96C24_596_LEDLQHMCLELTVWDREPLASNDFLGGVR (UniProt Q96C24)”, the “probe-labelled cysteine peptide fold change” value (10 µM) amounted to 0.0234 and the “probe-labelled cysteine peptide fold change” value (50 µM) stood at 0.105.

As for “SZT2_Q5T011_2339_CPVVVDSSSAQNGAPR (UniProt Q5T011)”, the “probe-labelled cysteine peptide fold change” value by setting is: (10 µM) 0.00622; (50 µM) -0.0679.

“TCERG1_O14776_1062_YLVLDCVPEER (UniProt O14776)”: the “probe-labelled cysteine peptide fold change” value turned out to be 0.0248 (10 µM) and 0.0542 (50 µM).

Regarding “TBC1D8B_Q0IIM8_80_ILHQTPDSQVYLSIACGANREEITK (UniProt Q0IIM8)”, the “probe-labelled cysteine peptide fold change” value runs as follows: (10 µM) -0.0172; (50 µM) -0.0255.

Regarding “TARS_P26639_107_TTPYQIACGISQGLADNTVIAK (UniProt P26639)”, the “probe-labelled cysteine peptide fold change” value turned out to be 0.0466 (10 µM) and 0.0371 (50 µM).

As for “TATDN1_Q6P1N9_113_VVAIGECGLDFDR (UniProt Q6P1N9)”, the “probe-labelled cysteine peptide fold change” value was 0.129 (10 µM) and 0.0504 (50 µM).

For the target “TBL1XR1_Q9BZK7_465_CVHIWNTQTGALVHSYR (UniProt Q9BZK7)”, the “probe-labelled cysteine peptide fold change” value reads like this: (10 µM) 0.104; (50 µM) -0.0415.
